This assay addresses T1, His-tagged OsSRT1 (rice (Oryza sativa indica)) (UniProt B8ARK7).
T1 sequence: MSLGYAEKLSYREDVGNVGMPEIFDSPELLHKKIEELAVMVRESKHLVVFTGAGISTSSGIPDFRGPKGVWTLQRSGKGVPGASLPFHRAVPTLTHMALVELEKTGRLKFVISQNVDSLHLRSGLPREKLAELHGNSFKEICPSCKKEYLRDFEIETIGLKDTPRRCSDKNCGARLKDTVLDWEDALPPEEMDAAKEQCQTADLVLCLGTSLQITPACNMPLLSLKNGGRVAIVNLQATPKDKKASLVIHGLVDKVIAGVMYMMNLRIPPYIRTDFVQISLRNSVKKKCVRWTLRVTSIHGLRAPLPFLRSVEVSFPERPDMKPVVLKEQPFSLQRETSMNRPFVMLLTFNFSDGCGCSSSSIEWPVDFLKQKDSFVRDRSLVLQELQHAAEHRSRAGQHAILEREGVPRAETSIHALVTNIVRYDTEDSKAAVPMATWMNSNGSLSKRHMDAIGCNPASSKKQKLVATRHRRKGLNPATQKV
The assay can be described thus: pull-down.

Results are given in words; binding and its absence hold for the method and conditions named. In cells and extracts the contact can be indirect. Binding can be weak; no strength is given. Tags and fused reporters may be left off the sequences shown.

Turning to OsPARP2 (enzyme), the binding entry is “binds”.
